In patent publication US20120122730A1, “Methods for Quantitative Analyses of Kinase Inhibitor Selectivity Using Small Size Panels” (priority 2010, published 2012):
At least one compound was matched to its structure with a doubt left.

Test system: panel of 287 distinct human protein kinases, three lipid kinases, and 27 disease-relevant mutant variants
Experiment: Weighted selectivity score from competition binding assays against a kinase panel
Details: Kd thresholds <100 nM, <1 μM, <3 μM weighted; panel of 317 assays; FIG. 7
Protocol: In one embodiment, a kinase subset may be determined by using a computational method that can extract knowledge from large amounts of data from known cancer drug designs and find a subset of kinases. A first step in determining a kinase subset involves the use of data from competition binding assays where kinase inhibitors are evaluated against a panel of protein kinases. For each interaction, a quantitative dissociation constant (Kd) is needed.
In one embodiment, a quantitative description, called a weighted selectivity score, is developed for assessing kinome-wide compound reactivities by suitably coarse-graining the binding-affinity vector. […] The weighted selectivity score (normalized or not) is an unbiased measure that enables quantitative comparisons between compounds and the detailed differentiation and analysis of interaction patterns. […]
To validate a method of the present disclosure, data from a previous competition binding assays was used wherein 38 kinase inhibitors were evaluated against a panel of 287 distinct human protein kinases, three lipid kinases, and 27 disease-relevant mutant variants. […] Each compound was screened against the panel of 317 assays at a single concentration of 10 μM to identify candidate kinase targets, and for each interaction observed in this primary screen a quantitative dissociation constant was determined.

Compound: CCN(CC)CCNC(=O)c1c(C)[nH]c(/C=C2\C(=O)Nc3ccc(F)cc32)c1C [Sunitinib]
- weighted selectivity score (overall score): 146.7
